From paper doi:10.1101/2023.05.31.543024 come the findings set out here.

Holding throughout (assay): co-IP
Test [1] concerns the target T1, HA-DRG2 A260Y + Y278D (human) (UniProt P55039).
T1 sequence: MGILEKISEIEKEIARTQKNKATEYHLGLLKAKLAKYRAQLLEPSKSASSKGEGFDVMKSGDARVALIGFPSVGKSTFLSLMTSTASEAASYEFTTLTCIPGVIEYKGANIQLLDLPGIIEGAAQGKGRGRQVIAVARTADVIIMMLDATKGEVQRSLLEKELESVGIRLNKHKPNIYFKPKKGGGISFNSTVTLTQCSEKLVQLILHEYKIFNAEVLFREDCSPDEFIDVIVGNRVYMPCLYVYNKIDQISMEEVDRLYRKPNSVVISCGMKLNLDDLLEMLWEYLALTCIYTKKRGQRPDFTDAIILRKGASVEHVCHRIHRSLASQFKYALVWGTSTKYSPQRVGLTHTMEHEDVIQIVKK

The target in test [2] is T2, HA-DRG1 L155E + Y262A + D280Y (human) (UniProt Q9Y295).
T2 sequence: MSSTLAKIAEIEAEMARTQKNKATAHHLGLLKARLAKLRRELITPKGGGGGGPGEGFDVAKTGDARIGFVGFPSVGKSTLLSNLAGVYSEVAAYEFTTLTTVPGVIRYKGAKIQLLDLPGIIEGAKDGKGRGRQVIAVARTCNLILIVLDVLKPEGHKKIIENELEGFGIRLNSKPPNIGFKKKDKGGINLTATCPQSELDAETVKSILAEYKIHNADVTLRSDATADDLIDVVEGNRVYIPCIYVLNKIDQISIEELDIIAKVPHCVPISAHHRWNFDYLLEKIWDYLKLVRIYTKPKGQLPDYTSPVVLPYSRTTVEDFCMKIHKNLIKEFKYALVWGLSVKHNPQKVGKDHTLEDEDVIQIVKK

A further test addresses T3, HA-DRG1 I260R (human) (UniProt Q9Y295).
T3 sequence: T2 sequence with E155L, I260R, A262Y, Y280D

Test [3] addresses T4, HA-DRG1 Y262A + D280Y (human) (UniProt Q9Y295).
T4 sequence: T2 sequence with E155L

Test [4] addresses T5, HA-DRG1 LIYVD (L155E + I260R + Y262A + V264K + D280Y) (human) (UniProt Q9Y295).
T5 sequence: T2 sequence with I260R, V264K

Changes are numbered by the printed parent chain. Results are given in words; binding and its absence hold for the method and conditions named. Binding seen in cells or lysates may run through a third protein. Some results given as binding are weak or reduced against the parent protein; the word gives no strength. Tags and fused reporters may be left off the sequences shown.

B1: DRG family regulatory protein 2 (DFRP2), endogenous (protein, UniProt Q9H446 1-243)
chain: MTDYGEEQRNELEALESIYPDSFTVLSENPPSFTITVTSEAGENDETVQTTLKFTYSEKYPDEAPLYEIFSQENLEDNDVSDILKLLALQAEENLGMVMIFTLVTAVQEKLNEIVDQIKTRREEEKKQKEKEAEEAEKQLFHGTPVTIENFLNWKAKFDAELLEIKKKRMKEEEQAGKNKLSGKQLFETDHNLDTSDIQFLEDAGNNVEVDESLFQEMDDLELEDDEDDPDYNPADPESDSAD
As for B1, the binding result is “no binding” in test [1]; “binds” in test [2]; “no binding” with HA-DRG1 I260R (human); “binds” in test [3]; “binds” in test [4].
